From PubChem BioAssay AID272 (DTP/NCI, 2004)
The list shows only some results of the screen, not a fair sample: it gathers tests that were run many times, whatever their T/C, doses with no T/C, and many T/C values between a quarter and a half above the control. Other doses and runs of a compound stand elsewhere. T/C is the treated group as % of the vehicle group. Schedules are NCI's codes, taken here to give the interval after Q, in days (D) or hours (H), and the number of doses after X. Some doses have a count of surviving animals in place of a T/C: the source files T/C as zero there, which appears to mark a toxic dose or a test without result, not a measured value. Some doses without a T/C left all or most animals alive at the check, yet need not have been tolerated: the source hardly ever lists a survival T/C far under the control, and the zero likely stands for such cases as well. Survivors were counted at the toxicity check, usually on the fifth day, unless a day is given; later deaths do not show. Some entries hold several experiments; their values stand side by side, smallest first. Where survival is the endpoint, the PubChem record calls one and a half times the control and up active, and a quarter to a half above the control has no call in these data; cut-offs in other NCI protocols can differ. Some T/C values carry the count of animals alive at the toxicity check (mostly the fifth day); without a count, all were alive then.

Test system: Lewis lung carcinoma i.m., BDF1 mice, T/C %
Test: NCI In Vivo Anticancer Drug Screen. Data for tumor model Lewis Lung Carcinoma (intramuscular) in B6D2F1 (BDF1) mice
Outline: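 Compound given to mice with transplantable tumours; survival or tumour size compared against the vehicle control group, reported as T divided by C.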

[1] = T/C endpoint: median survival time, dose: 16.0 mg/kg/injection, schedule: Q08DX002 (ip), vehicle: Klucel (hydroxypropylcellulose) (HPC), higher T/C = longer survival
[2] = T/C endpoint: median survival time, dose: 64.0 mg/kg/injection, schedule: Q01DX009 (ip), vehicle: Klucel (hydroxypropylcellulose) (HPC), higher T/C = longer survival
[3] = T/C endpoint: median survival time, dose: 0.25 mg/kg/injection, schedule: Q01DX011 (ip), vehicle: water, higher T/C = longer survival
[4] = T/C endpoint: median survival time, dose: 0.5 mg/kg/injection, schedule: Q01DX011 (ip), vehicle: water, higher T/C = longer survival
[5] = T/C endpoint: median survival time, dose: 1.0 mg/kg/injection, schedule: Q01DX011 (ip), vehicle: water, higher T/C = longer survival
[6] = T/C endpoint: median survival time, dose: 2.0 mg/kg/injection, schedule: Q01DX011 (ip), vehicle: water, higher T/C = longer survival
[7] = T/C endpoint: median survival time, dose: 250.0 mg/kg/injection, schedule: Q01DX011 (ip), vehicle: saline, higher T/C = longer survival

CCc1nc(N)nc(N)c1-c1ccc(Cl)cc1
survivor count (T/C endpoint: mean tumor weight, dose: 32.0 mg/kg/injection, schedule: Q06HX004 (ip), vehicle: Klucel (hydroxypropylcellulose) (HPC), higher T/C = larger tumour): 5 of 8 | survivor count (T/C endpoint: mean tumor weight, dose: 32.0 mg/kg/injection, schedule: Q06HX012 (ip), vehicle: Klucel (hydroxypropylcellulose) (HPC), higher T/C = larger tumour): 5 of 8 | survivor count (T/C endpoint: mean tumor weight, dose: 64.0 mg/kg/injection, schedule: Q01DX009 (ip), vehicle: Klucel (hydroxypropylcellulose) (HPC), higher T/C = larger tumour): 5 of 8 | survivor count (T/C endpoint: mean tumor weight, dose: 100.0 mg/kg/injection, schedule: Q01DX011 (ip), vehicle: steroid suspending solution, higher T/C = larger tumour): 3 of 8 | survivor count (T/C endpoint: mean tumor weight, dose: 128.0 mg/kg/injection, schedule: Q08DX002 (ip), vehicle: Klucel (hydroxypropylcellulose) (HPC), higher T/C = larger tumour): 4 of 8 | survivor count (T/C endpoint: median survival time, dose: 12.5 mg/kg/injection, schedule: Q01DX011 (ip), vehicle: steroid suspending solution, higher T/C = longer survival): 8 of 8 | T/C (T/C endpoint: median survival time, dose: 16.0 mg/kg/injection, schedule: Q01DX001 (sc), vehicle: Klucel (hydroxypropylcellulose) (HPC), higher T/C = longer survival): 130 % of control | T/C [1]: 126 % of control | survivor count [1]: 8 of 8 | survivor count (T/C endpoint: median survival time, dose: 25.0 mg/kg/injection, schedule: Q01DX011 (ip), vehicle: steroid suspending solution, higher T/C = longer survival): 6 of 8 | T/C (T/C endpoint: median survival time, dose: 32.0 mg/kg/injection, schedule: Q01DX001 (sc), vehicle: Klucel (hydroxypropylcellulose) (HPC), higher T/C = longer survival): 126 % of control | survivor count (T/C endpoint: median survival time, dose: 32.0 mg/kg/injection, schedule: Q01DX009 (ip), vehicle: Klucel (hydroxypropylcellulose) (HPC), higher T/C = longer survival): 7 of 8 | T/C (T/C endpoint: median survival time, dose: 32.0 mg/kg/injection, schedule: Q04DX003 (ip), vehicle: Klucel (hydroxypropylcellulose) (HPC), higher T/C = longer survival): 135 % of control | survivor count (T/C endpoint: median survival time, dose: 32.0 mg/kg/injection, schedule: Q06HX004 (ip), vehicle: Klucel (hydroxypropylcellulose) (HPC), higher T/C = longer survival): 5 of 8 | T/C (T/C endpoint: median survival time, dose: 32.0 mg/kg/injection, schedule: Q06HX008 (ip), vehicle: Klucel (hydroxypropylcellulose) (HPC), higher T/C = longer survival): 138 % of control | survivor count (T/C endpoint: median survival time, dose: 32.0 mg/kg/injection, schedule: Q06HX012 (ip), vehicle: Klucel (hydroxypropylcellulose) (HPC), higher T/C = longer survival): 5 of 8 | survivor count (T/C endpoint: median survival time, dose: 50.0 mg/kg/injection, schedule: Q01DX011 (ip), vehicle: steroid suspending solution, higher T/C = longer survival): 3 of 8 and 6 of 8 | T/C [2]: 133 % of control [6 of 8 alive] | survivor count [2]: 5 of 8 | survivor count (T/C endpoint: median survival time, dose: 64.0 mg/kg/injection, schedule: Q01DX009 (oral), vehicle: Klucel (hydroxypropylcellulose) (HPC), higher T/C = longer survival): 0 of 8 | survivor count (T/C endpoint: median survival time, dose: 64.0 mg/kg/injection, schedule: Q08DX002 (ip), vehicle: Klucel (hydroxypropylcellulose) (HPC), higher T/C = longer survival): 6 of 8 | survivor count (T/C endpoint: median survival time, dose: 100.0 mg/kg/injection, schedule: Q01DX011 (ip), vehicle: steroid suspending solution, higher T/C = longer survival): 1 of 8 and 3 of 8 | survivor count (T/C endpoint: median survival time, dose: 128.0 mg/kg/injection, schedule: Q01DX009 (ip), vehicle: Klucel (hydroxypropylcellulose) (HPC), higher T/C = longer survival): 0 of 8 | survivor count (T/C endpoint: median survival time, dose: 128.0 mg/kg/injection, schedule: Q08DX002 (ip), vehicle: Klucel (hydroxypropylcellulose) (HPC), higher T/C = longer survival): 4 of 8

CC(C)n1c2c([n+](C)c1/C=C/c1ccccc1)C(=O)c1ccccc1C2=O
survivor count (T/C endpoint: median survival time, dose: 1.0 mg/kg/injection, schedule: Q01DX011 (ip), vehicle: saline with Tween-80, higher T/C = longer survival): 6 of 8 | survivor count (T/C endpoint: median survival time, dose: 2.0 mg/kg/injection, schedule: Q01DX011 (ip), vehicle: saline with Tween-80, higher T/C = longer survival): 0 of 8 | survivor count (T/C endpoint: median survival time, dose: 4.0 mg/kg/injection, schedule: Q01DX011 (ip), vehicle: saline with Tween-80, higher T/C = longer survival): 0 of 8

Clc1ccc2nc(CI)c(CI)nc2c1
survivor count (T/C endpoint: mean tumor weight (est.), dose: 25.0 mg/kg/injection, schedule: Q01DX011 (ip), vehicle: saline with Tween-80, higher T/C = larger tumour): 3 of 8 | survivor count (T/C endpoint: median survival time, dose: 25.0 mg/kg/injection, schedule: Q01DX011 (ip), vehicle: saline with Tween-80, higher T/C = longer survival): 3 of 8

CC[C@]1(O)C[C@H]2CN(CCc3c([nH]c4ccccc34)[C@@](C(=O)OC)(c3cc4c(cc3OC)N(C=O)[C@H]3[C@@](O)(C(=O)OC)[C@H](OC(C)=O)[C@]5(CC)C=CCN6CC[C@]43[C@@H]65)C2)C1
survivor count (T/C endpoint: mean tumor weight (est.), dose: 0.39 mg/kg/injection, schedule: Q01DX009 (ip), vehicle: water, higher T/C = larger tumour): 0 of 4 | T/C (T/C endpoint: mean tumor weight, dose: 0.06 mg/kg/injection, schedule: Q01DX011 (ip), vehicle: water, evaluated on day 12, higher T/C = larger tumour): 133 % of control | survivor count (T/C endpoint: mean tumor weight, dose: 0.39 mg/kg/injection, schedule: Q01DX009 (ip), vehicle: water, higher T/C = larger tumour): 3 of 8 | survivor count (T/C endpoint: mean tumor weight, dose: 0.5 mg/kg/injection, schedule: Q01DX011 (ip), vehicle: water, higher T/C = larger tumour): 1 of 8 | T/C (T/C endpoint: median survival time, dose: 0.14 mg/kg/injection, schedule: Q01DX009 (ip), vehicle: water, higher T/C = longer survival): 143 % of control | T/C (T/C endpoint: median survival time, dose: 0.14 mg/kg/injection, schedule: Q09DX009 (ip), vehicle: water, evaluated on day 10, higher T/C = longer survival): 125 % of control | T/C (T/C endpoint: median survival time, dose: 0.14 mg/kg/injection, schedule: Q09DX009 (ip), vehicle: water, evaluated on day 50, higher T/C = longer survival): 125 % of control | T/C (T/C endpoint: median survival time, dose: 0.23 mg/kg/injection, schedule: Q09DX009 (ip), vehicle: water, evaluated on day 10, higher T/C = longer survival): 125 % of control | T/C (T/C endpoint: median survival time, dose: 0.23 mg/kg/injection, schedule: Q09DX009 (ip), vehicle: water, evaluated on day 50, higher T/C = longer survival): 125 % of control | survivor count [3]: 1 of 10 and 7 of 10 | survivor count (T/C endpoint: median survival time, dose: 0.39 mg/kg/injection, schedule: Q01DX009 (ip), vehicle: water, higher T/C = longer survival): 3 of 8 | survivor count (T/C endpoint: median survival time, dose: 0.39 mg/kg/injection, schedule: Q09DX009 (ip), vehicle: water, higher T/C = longer survival): 4 of 8 | survivor count [4]: 0 of 10, 1 of 8, 2 of 10 | survivor count (T/C endpoint: median survival time, dose: 0.65 mg/kg/injection, schedule: Q01DX009 (ip), vehicle: water, higher T/C = longer survival): 0 of 8 | survivor count [5]: 0 of 10 and 0 of 8 | survivor count [6]: 0 of 10 | survivor count (T/C endpoint: median survival time, dose: 4.0 mg/kg/injection, schedule: Q01DX011 (ip), vehicle: water, higher T/C = longer survival): 0 of 10

c1ccc2c(c1)ccc1c[n+]3ccccc3cc12
survivor count (T/C endpoint: mean tumor weight (est.), dose: 1.0 mg/kg/injection, schedule: Q01DX011 (ip), vehicle: saline, higher T/C = larger tumour): 3 of 8 | survivor count (T/C endpoint: median survival time, dose: 0.25 mg/kg/injection, schedule: Q01DX011 (ip), vehicle: saline, higher T/C = longer survival): 6 of 8 | T/C (T/C endpoint: median survival time, dose: 0.5 mg/kg/injection, schedule: Q01DX011 (ip), vehicle: saline, higher T/C = longer survival): 126 % of control | survivor count (T/C endpoint: median survival time, dose: 1.0 mg/kg/injection, schedule: Q01DX011 (ip), vehicle: saline, higher T/C = longer survival): 3 of 8 | survivor count (T/C endpoint: median survival time, dose: 2.0 mg/kg/injection, schedule: Q01DX011 (ip), vehicle: saline, higher T/C = longer survival): 6 of 8

O=[N+]([O-])c1cc(S(=O)(=O)OCC2CO2)ccc1Cl (stereo unspecified)
survivor count (T/C endpoint: median survival time, dose: 50.0 mg/kg/injection, schedule: Q01DX011 (ip), vehicle: saline with Tween-80, higher T/C = longer survival): 0 of 8

CO[C@H](C(=O)[C@@H](O)[C@@H](C)O)[C@@H]1Cc2cc3cc(OC4CC(OC5CC(O)C(O)C(C)O5)C(O)C(C)O4)c(C)c(O)c3c(O)c2C(=O)[C@H]1OC1CC(OC2CC(OC3CC(C)(O)C(O)C(C)O3)C(O)C(C)O2)C(O)C(C)O1 (stereo partly specified)
survivor count (T/C endpoint: mean tumor weight, dose: 1.0 mg/kg/injection, schedule: Q01DX011 (ip), vehicle: water, higher T/C = larger tumour): 2 of 8 | survivor count (T/C endpoint: median survival time, dose: 0.12 mg/kg/injection, schedule: Q01DX011 (ip), vehicle: water, higher T/C = longer survival): 7 of 10 | survivor count [3]: 9 of 10 | survivor count [4]: 10 of 10 | survivor count (T/C endpoint: median survival time, dose: 1.0 mg/kg/injection, schedule: Q01DX009 (ip), vehicle: water, higher T/C = longer survival): 6 of 10 | survivor count [5]: 4 of 10, 4 of 8, 7 of 10 | survivor count (T/C endpoint: median survival time, dose: 2.0 mg/kg/injection, schedule: Q01DX009 (ip), vehicle: water, higher T/C = longer survival): 1 of 10 and 6 of 10 | survivor count [6]: 0 of 10

CN(C)C(=S)S
survivor count (T/C endpoint: mean tumor weight, dose: 250.0 mg/kg/injection, schedule: Q01DX011 (ip), vehicle: saline, higher T/C = larger tumour): 4 of 8 | survivor count (T/C endpoint: mean tumor weight, dose: 500.0 mg/kg/injection, schedule: Q01DX011 (ip), vehicle: saline, higher T/C = larger tumour): 3 of 8 | survivor count (T/C endpoint: median survival time, dose: 125.0 mg/kg/injection, schedule: Q01DX011 (ip), vehicle: saline, higher T/C = longer survival): 6 of 8 | T/C [7]: 136 % of control [7 of 8 alive] | survivor count [7]: 4 of 8 | survivor count (T/C endpoint: median survival time, dose: 500.0 mg/kg/injection, schedule: Q01DX011 (ip), vehicle: saline, higher T/C = longer survival): 0 of 8 and 3 of 8
